Measurements: the supplement of paper PMC12823440, “Inhibitors supercharge kinase turnover through native proteolytic circuits” (Nature, 2025)
Structures can show the parent of a compound that is named as a salt. This is one part of the list. Hit calls seldom repeat between salt and free forms of one compound.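 In K562 cells expressing nanoluciferase-fused kinases, luminescence was recorded at 4 h intervals between 2 and 18 h, normalized as percent of control with DMSO at 100% and a positive control at 0%. A significant (2 sigma) signal drop marks a time point as decreased. The authors' rule for a hit is not shown and takes in more than the number of time points.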

By UniProt entry, the sequences of proteins in these tests, tags left out. Where a name states a change or a piece, a line headed by the entry shows the natural chain unless it says otherwise.
UniProt P42680: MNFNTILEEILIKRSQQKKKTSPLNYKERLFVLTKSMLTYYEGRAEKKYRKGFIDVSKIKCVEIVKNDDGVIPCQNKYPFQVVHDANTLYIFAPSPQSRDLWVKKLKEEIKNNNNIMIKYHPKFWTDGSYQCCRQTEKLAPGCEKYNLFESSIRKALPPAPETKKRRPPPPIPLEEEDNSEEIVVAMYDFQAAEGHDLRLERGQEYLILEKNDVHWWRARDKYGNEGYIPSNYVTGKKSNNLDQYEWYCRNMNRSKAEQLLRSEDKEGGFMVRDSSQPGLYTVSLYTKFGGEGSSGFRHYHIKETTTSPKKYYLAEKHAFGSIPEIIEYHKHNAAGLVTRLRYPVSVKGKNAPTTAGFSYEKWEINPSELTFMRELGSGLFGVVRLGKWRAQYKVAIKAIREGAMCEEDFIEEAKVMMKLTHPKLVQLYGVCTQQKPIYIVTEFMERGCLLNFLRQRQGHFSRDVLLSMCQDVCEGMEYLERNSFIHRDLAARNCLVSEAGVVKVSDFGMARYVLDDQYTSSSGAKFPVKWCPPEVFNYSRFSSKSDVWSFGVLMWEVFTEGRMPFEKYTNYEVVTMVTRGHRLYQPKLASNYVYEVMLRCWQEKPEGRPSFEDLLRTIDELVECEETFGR
UniProt P29597: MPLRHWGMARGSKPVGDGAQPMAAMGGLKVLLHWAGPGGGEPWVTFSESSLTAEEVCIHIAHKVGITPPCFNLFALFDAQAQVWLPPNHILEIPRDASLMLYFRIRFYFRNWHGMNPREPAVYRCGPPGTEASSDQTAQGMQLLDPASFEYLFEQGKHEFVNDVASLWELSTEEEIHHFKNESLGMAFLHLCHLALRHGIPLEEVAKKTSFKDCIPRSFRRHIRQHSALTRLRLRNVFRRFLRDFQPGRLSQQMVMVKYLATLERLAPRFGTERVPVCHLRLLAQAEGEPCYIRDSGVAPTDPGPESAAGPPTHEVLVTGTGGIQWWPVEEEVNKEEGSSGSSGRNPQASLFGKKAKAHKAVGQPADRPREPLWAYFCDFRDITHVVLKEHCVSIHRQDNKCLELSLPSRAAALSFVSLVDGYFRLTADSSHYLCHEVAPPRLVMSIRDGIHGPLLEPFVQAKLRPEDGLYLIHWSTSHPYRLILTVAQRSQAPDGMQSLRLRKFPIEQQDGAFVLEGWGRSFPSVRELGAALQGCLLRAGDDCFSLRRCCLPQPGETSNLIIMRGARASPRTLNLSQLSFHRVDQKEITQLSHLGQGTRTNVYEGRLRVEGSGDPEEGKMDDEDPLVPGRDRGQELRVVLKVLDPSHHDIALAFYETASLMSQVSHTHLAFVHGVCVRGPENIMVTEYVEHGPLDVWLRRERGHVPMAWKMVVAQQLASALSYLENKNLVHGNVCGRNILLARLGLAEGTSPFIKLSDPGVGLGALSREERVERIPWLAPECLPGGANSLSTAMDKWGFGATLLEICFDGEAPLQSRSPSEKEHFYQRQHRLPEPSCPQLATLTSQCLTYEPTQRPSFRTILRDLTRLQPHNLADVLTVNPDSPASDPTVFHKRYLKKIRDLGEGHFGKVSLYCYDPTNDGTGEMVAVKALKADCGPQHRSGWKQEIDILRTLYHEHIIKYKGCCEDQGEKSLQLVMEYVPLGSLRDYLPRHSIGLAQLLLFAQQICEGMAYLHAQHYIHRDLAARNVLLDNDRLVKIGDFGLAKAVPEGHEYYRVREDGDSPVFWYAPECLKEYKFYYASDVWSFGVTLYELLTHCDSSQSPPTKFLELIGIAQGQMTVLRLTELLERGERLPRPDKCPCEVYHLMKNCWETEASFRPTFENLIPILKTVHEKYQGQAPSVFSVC
UniProt P07947, whole entry, looked up: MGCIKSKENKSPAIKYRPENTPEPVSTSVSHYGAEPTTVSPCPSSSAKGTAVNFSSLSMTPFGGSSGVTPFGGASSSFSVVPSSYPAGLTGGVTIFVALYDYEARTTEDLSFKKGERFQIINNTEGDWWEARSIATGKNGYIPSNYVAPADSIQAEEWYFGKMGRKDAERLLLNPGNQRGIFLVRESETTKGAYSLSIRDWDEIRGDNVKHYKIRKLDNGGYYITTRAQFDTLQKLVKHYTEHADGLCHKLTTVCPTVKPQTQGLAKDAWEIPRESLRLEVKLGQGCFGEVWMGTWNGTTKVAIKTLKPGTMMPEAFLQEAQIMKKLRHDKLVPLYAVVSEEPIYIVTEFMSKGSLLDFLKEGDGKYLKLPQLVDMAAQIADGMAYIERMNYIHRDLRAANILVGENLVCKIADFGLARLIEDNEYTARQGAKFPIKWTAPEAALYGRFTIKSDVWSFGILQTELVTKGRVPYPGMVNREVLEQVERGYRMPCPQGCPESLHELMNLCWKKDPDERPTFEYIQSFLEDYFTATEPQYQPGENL
UniProt Q9UM73: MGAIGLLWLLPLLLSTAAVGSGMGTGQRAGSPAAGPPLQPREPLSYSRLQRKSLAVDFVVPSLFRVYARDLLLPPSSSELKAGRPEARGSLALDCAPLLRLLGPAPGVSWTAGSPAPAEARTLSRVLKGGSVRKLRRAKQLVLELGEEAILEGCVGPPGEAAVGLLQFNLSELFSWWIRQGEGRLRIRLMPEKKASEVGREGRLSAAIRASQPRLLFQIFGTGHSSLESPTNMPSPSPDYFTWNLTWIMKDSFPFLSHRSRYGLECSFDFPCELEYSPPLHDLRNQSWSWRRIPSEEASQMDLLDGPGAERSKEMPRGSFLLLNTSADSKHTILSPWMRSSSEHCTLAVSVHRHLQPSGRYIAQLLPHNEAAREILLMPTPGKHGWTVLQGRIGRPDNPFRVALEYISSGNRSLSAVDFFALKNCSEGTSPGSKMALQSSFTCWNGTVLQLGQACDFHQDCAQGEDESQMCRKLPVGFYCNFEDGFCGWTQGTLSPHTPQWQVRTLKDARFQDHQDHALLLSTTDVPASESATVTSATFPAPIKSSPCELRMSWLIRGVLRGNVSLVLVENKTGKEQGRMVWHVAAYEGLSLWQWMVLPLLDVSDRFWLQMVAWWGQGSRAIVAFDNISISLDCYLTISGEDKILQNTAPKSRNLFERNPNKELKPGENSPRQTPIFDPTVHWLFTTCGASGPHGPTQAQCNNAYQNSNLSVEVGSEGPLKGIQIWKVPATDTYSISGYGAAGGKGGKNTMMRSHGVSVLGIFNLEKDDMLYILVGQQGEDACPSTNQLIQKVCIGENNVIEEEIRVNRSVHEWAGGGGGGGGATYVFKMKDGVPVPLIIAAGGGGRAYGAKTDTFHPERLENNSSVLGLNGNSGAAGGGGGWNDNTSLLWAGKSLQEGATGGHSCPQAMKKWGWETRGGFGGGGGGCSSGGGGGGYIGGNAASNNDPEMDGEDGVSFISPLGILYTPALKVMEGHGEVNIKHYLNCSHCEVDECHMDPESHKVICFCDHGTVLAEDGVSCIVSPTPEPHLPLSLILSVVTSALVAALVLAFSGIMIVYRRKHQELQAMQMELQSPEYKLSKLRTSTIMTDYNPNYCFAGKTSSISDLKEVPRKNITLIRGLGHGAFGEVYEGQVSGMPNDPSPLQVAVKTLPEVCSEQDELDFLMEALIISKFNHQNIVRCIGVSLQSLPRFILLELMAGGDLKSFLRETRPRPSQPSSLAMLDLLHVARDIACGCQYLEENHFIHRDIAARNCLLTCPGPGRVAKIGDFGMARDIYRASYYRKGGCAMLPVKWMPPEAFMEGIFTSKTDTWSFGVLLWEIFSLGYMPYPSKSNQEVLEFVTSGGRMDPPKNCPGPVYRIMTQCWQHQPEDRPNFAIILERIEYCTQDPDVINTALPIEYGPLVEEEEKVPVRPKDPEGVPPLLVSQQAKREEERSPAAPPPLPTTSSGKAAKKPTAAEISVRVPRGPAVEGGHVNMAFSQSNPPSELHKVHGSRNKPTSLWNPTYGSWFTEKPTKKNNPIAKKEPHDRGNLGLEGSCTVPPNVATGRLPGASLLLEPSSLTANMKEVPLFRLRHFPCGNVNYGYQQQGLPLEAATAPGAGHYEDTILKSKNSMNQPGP
UniProt P10398: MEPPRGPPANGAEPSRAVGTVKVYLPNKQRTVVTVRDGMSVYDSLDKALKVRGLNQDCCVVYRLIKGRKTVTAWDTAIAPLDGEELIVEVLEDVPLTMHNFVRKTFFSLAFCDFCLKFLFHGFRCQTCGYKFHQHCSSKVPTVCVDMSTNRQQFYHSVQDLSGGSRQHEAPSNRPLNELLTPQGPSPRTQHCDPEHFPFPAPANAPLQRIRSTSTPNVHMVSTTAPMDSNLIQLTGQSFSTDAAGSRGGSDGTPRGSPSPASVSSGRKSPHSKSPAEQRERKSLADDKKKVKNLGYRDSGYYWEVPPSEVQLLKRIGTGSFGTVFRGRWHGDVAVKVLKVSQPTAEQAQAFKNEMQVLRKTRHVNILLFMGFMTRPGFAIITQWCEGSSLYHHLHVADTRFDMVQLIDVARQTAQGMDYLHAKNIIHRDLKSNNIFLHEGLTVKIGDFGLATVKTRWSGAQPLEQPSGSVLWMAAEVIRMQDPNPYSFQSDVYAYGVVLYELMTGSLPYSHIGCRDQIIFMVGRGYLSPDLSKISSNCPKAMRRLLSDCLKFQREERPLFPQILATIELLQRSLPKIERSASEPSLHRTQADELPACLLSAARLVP
UniProt Q96GD4, whole entry: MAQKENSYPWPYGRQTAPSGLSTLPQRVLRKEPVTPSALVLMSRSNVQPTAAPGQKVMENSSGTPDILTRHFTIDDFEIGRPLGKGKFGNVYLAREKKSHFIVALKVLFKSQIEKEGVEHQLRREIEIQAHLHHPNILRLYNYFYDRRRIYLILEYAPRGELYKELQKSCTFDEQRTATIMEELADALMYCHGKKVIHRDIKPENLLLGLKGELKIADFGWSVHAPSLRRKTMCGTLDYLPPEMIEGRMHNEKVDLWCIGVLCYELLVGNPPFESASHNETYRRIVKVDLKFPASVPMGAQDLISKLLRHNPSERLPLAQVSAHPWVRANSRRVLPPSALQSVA
UniProt P15056, whole entry, looked up: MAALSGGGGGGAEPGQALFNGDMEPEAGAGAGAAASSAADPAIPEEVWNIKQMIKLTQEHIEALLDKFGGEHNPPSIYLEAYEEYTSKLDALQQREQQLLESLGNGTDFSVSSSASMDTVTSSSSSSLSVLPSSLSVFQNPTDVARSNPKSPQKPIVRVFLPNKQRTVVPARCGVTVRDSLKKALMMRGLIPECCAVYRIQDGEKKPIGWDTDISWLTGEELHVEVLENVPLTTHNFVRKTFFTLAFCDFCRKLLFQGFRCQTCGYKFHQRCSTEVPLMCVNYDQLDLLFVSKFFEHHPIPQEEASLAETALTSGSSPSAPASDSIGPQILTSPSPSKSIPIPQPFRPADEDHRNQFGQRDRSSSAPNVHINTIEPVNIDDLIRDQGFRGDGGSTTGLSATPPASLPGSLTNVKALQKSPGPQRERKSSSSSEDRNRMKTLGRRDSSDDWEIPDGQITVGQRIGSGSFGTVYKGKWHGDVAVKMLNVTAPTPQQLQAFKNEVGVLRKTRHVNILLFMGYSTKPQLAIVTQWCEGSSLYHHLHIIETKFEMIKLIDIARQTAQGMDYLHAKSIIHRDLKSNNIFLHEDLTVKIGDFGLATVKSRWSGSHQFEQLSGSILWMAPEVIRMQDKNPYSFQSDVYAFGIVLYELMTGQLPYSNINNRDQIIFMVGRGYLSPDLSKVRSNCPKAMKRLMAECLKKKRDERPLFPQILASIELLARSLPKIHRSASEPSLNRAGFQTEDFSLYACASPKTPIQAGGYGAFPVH
UniProt Q06187: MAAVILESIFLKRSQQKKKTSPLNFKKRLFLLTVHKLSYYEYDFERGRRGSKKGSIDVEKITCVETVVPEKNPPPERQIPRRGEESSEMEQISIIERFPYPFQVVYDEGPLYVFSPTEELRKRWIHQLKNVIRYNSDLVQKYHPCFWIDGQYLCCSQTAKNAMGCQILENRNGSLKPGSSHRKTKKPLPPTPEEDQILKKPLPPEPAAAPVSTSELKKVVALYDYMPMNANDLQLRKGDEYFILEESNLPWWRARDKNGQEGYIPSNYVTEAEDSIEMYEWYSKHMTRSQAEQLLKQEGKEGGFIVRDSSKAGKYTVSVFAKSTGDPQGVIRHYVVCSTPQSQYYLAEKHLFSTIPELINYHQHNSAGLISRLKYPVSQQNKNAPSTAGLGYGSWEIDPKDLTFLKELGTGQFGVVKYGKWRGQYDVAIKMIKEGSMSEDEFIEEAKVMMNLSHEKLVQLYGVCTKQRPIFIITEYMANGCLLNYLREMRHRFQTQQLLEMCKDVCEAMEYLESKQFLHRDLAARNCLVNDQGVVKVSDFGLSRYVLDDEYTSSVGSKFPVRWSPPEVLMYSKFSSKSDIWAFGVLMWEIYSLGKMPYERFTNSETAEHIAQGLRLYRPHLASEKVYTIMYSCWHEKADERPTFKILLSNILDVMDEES

Experiments:
Details in all cases: K562; 2-18 h
STK38 = STK38 (UniProt Q15208); assay: kinase-Nluc reporter destabilization hit call (1 = scored as downregulated) (binary); higher = compound decreases kinase abundance
SYK = SYK (UniProt P43405); assay: as above
TEC = TEC (UniProt P42680); assay: as above
TYK2 = TYK2 (UniProt P29597); assay: as above
ULK3 = ULK3 (UniProt Q6PHR2); assay: as above
YES1 = YES1 (UniProt P07947); assay: as above
ZAK = ZAK (UniProt Q9NYL2); assay: as above
ZAP70 = ZAP70 (UniProt P43403); assay: as above
ABL1 = ABL1 (UniProt P00519); assay: number of time points (of 5) at which kinase-Nluc abundance scored as decreased, DMSO-normalised (count); higher = more persistent destabilization
AKT1 = AKT1 (UniProt P31749); assay: as above
ALK = ALK (UniProt Q9UM73); assay: as above
ARAF = ARAF (UniProt P10398); assay: as above
AURKA = AURKA (UniProt O14965); assay: as above
AURKB = AURKB (UniProt Q96GD4); assay: as above
AURKC = AURKC (UniProt Q9UQB9); assay: as above
BLK = BLK (UniProt P51451); assay: as above
BMX = BMX (UniProt P51813); assay: as above
BRAF = BRAF (UniProt P15056); assay: as above
BRAF_V600E = assay: as above
BTK = BTK (UniProt Q06187); assay: as above

SMILES: CCCNC(=O)Nc1ccc(Oc2ncnc3cc(OC)c(OC)cc23)cc1Cl (2.5 µM)
- kinase-Nluc reporter destabilization hit call (STK38): inactive: 0
- kinase-Nluc reporter destabilization hit call (SYK): inactive: 0
- kinase-Nluc reporter destabilization hit call (TEC): inactive: 0
- kinase-Nluc reporter destabilization hit call (TYK2): inactive: 0
- kinase-Nluc reporter destabilization hit call (ULK3): inactive: 0
- kinase-Nluc reporter destabilization hit call (YES1): inactive: 0
- kinase-Nluc reporter destabilization hit call (ZAK): inactive: 0
- kinase-Nluc reporter destabilization hit call (ZAP70): inactive: 0
- number of time points (ABL1): 0
- number of time points (AKT1): 0
- number of time points (ALK): 0
- number of time points (ARAF): 0
- number of time points (AURKA): 0
- number of time points (AURKB): 0
- number of time points (AURKC): 0
- number of time points (BLK): 0
- number of time points (BMX): 0
- number of time points (BRAF): 0
- number of time points (BRAF_V600E): 0
- number of time points (BTK): 0

SMILES: O=C(NCc1cccc(O)c1)Nc1nc(-c2ccncc2)cs1 (10 µM)
- kinase-Nluc reporter destabilization hit call (STK38): inactive: 0
- kinase-Nluc reporter destabilization hit call (SYK): inactive: 0
- kinase-Nluc reporter destabilization hit call (TEC): inactive: 0
- kinase-Nluc reporter destabilization hit call (TYK2): inactive: 0
- kinase-Nluc reporter destabilization hit call (ULK3): inactive: 0
- kinase-Nluc reporter destabilization hit call (YES1): inactive: 0
- kinase-Nluc reporter destabilization hit call (ZAK): inactive: 0
- kinase-Nluc reporter destabilization hit call (ZAP70): inactive: 0
- number of time points (ABL1): 0
- number of time points (AKT1): 0
- number of time points (ALK): 0
- number of time points (ARAF): 0
- number of time points (AURKA): 0
- number of time points (AURKB): 0
- number of time points (AURKC): 0
- number of time points (BLK): 0
- number of time points (BMX): 0
- number of time points (BRAF): 0
- number of time points (BRAF_V600E): 0
- number of time points (BTK): 0

SMILES: COc1cc2ncnc(Nc3ccccc3)c2cc1OC (10 µM)
- kinase-Nluc reporter destabilization hit call (STK38): inactive: 0
- kinase-Nluc reporter destabilization hit call (SYK): inactive: 0
- kinase-Nluc reporter destabilization hit call (TEC): inactive: 0
- kinase-Nluc reporter destabilization hit call (TYK2): inactive: 0
- kinase-Nluc reporter destabilization hit call (ULK3): inactive: 0
- kinase-Nluc reporter destabilization hit call (YES1): inactive: 0
- kinase-Nluc reporter destabilization hit call (ZAK): inactive: 0
- kinase-Nluc reporter destabilization hit call (ZAP70): inactive: 0
- number of time points (ABL1): 0
- number of time points (AKT1): 0
- number of time points (ALK): 0
- number of time points (ARAF): 0
- number of time points (AURKA): 0
- number of time points (AURKB): 0
- number of time points (AURKC): 0
- number of time points (BLK): 0
- number of time points (BMX): 0
- number of time points (BRAF): 0
- number of time points (BRAF_V600E): 0
- number of time points (BTK): 0

SMILES: Cc1c(-c2ccc(C(N)=O)c3[nH]c4cc(C(C)(C)O)ccc4c23)cccc1-n1cnc2ccccc2c1=O (2.5 µM)
- kinase-Nluc reporter destabilization hit call (STK38): inactive: 0
- kinase-Nluc reporter destabilization hit call (SYK): inactive: 0
- kinase-Nluc reporter destabilization hit call (TEC): inactive: 0
- kinase-Nluc reporter destabilization hit call (TYK2): inactive: 0
- kinase-Nluc reporter destabilization hit call (ULK3): inactive: 0
- kinase-Nluc reporter destabilization hit call (YES1): inactive: 0
- kinase-Nluc reporter destabilization hit call (ZAK): inactive: 0
- kinase-Nluc reporter destabilization hit call (ZAP70): inactive: 0
- number of time points (ABL1): 0
- number of time points (AKT1): 0
- number of time points (ALK): 0
- number of time points (ARAF): 0
- number of time points (AURKA): 0
- number of time points (AURKB): 0
- number of time points (AURKC): 0
- number of time points (BLK): 0
- number of time points (BMX): 0
- number of time points (BRAF): 0
- number of time points (BRAF_V600E): 0
- number of time points (BTK): 0

SMILES: CC(C)CNc1ccnc(NCc2csc(-c3ccccc3)n2)n1 [KHS101 hydrochloride] (2.5 µM)
- kinase-Nluc reporter destabilization hit call (STK38): inactive: 0
- kinase-Nluc reporter destabilization hit call (SYK): inactive: 0
- kinase-Nluc reporter destabilization hit call (TEC): inactive: 0
- kinase-Nluc reporter destabilization hit call (TYK2): inactive: 0
- kinase-Nluc reporter destabilization hit call (ULK3): inactive: 0
- kinase-Nluc reporter destabilization hit call (YES1): inactive: 0
- kinase-Nluc reporter destabilization hit call (ZAK): inactive: 0
- kinase-Nluc reporter destabilization hit call (ZAP70): inactive: 0
- number of time points (ABL1): 0
- number of time points (AKT1): 0
- number of time points (ALK): 0
- number of time points (ARAF): 0
- number of time points (AURKA): 3
- number of time points (AURKB): 0
- number of time points (AURKC): 0
- number of time points (BLK): 0
- number of time points (BMX): 0
- number of time points (BRAF): 0
- number of time points (BRAF_V600E): 1
- number of time points (BTK): 0

SMILES: C=CC(=O)N1C(=O)CC(c2ccc(F)cc2)Sc2ccccc21 (stereo not drawn) [GSK-3β inhibitor 3] (10 µM)
- kinase-Nluc reporter destabilization hit call (STK38): inactive: 0
- kinase-Nluc reporter destabilization hit call (SYK): inactive: 0
- kinase-Nluc reporter destabilization hit call (TEC): inactive: 0
- kinase-Nluc reporter destabilization hit call (TYK2): inactive: 0
- kinase-Nluc reporter destabilization hit call (ULK3): inactive: 0
- kinase-Nluc reporter destabilization hit call (YES1): inactive: 0
- kinase-Nluc reporter destabilization hit call (ZAK): inactive: 0
- kinase-Nluc reporter destabilization hit call (ZAP70): inactive: 0
- number of time points (ABL1): 0
- number of time points (AKT1): 0
- number of time points (ALK): 1
- number of time points (ARAF): 0
- number of time points (AURKA): 1
- number of time points (AURKB): 0
- number of time points (AURKC): 0
- number of time points (BLK): 0
- number of time points (BMX): 1
- number of time points (BRAF): 0
- number of time points (BRAF_V600E): 1
- number of time points (BTK): 0

SMILES: O=C(Nc1nc2ccccc2[nH]1)c1cccc([N+](=O)[O-])c1 [IRAK-4 protein kinase inhibitor 2] (10 µM)
- kinase-Nluc reporter destabilization hit call (STK38): inactive: 0
- kinase-Nluc reporter destabilization hit call (SYK): inactive: 0
- kinase-Nluc reporter destabilization hit call (TEC): inactive: 0
- kinase-Nluc reporter destabilization hit call (TYK2): inactive: 0
- kinase-Nluc reporter destabilization hit call (ULK3): inactive: 0
- kinase-Nluc reporter destabilization hit call (YES1): inactive: 0
- kinase-Nluc reporter destabilization hit call (ZAK): inactive: 0
- kinase-Nluc reporter destabilization hit call (ZAP70): inactive: 0
- number of time points (ABL1): 0
- number of time points (AKT1): 0
- number of time points (ALK): 0
- number of time points (ARAF): 0
- number of time points (AURKA): 0
- number of time points (AURKB): 0
- number of time points (AURKC): 0
- number of time points (BLK): 0
- number of time points (BMX): 0
- number of time points (BRAF): 0
- number of time points (BRAF_V600E): 0
- number of time points (BTK): 0

SMILES: CCOC(=O)N1C/C(=C/c2ccccc2F)C(=O)/C(=C\c2ccccc2F)C1 (2.5 µM)
- kinase-Nluc reporter destabilization hit call (STK38): inactive: 0
- kinase-Nluc reporter destabilization hit call (SYK): inactive: 0
- kinase-Nluc reporter destabilization hit call (TEC): inactive: 0
- kinase-Nluc reporter destabilization hit call (TYK2): inactive: 0
- kinase-Nluc reporter destabilization hit call (ULK3): inactive: 0
- kinase-Nluc reporter destabilization hit call (YES1): inactive: 0
- kinase-Nluc reporter destabilization hit call (ZAK): inactive: 0
- kinase-Nluc reporter destabilization hit call (ZAP70): inactive: 0
- number of time points (ABL1): 0
- number of time points (AKT1): 0
- number of time points (ALK): 0
- number of time points (ARAF): 0
- number of time points (AURKA): 0
- number of time points (AURKB): 0
- number of time points (AURKC): 0
- number of time points (BLK): 0
- number of time points (BMX): 0
- number of time points (BRAF): 0
- number of time points (BRAF_V600E): 0
- number of time points (BTK): 0

SMILES: NC1=NCCN1CC(=O)O [Cyclocreatine] (10 µM)
- kinase-Nluc reporter destabilization hit call (STK38): inactive: 0
- kinase-Nluc reporter destabilization hit call (SYK): inactive: 0
- kinase-Nluc reporter destabilization hit call (TEC): inactive: 0
- kinase-Nluc reporter destabilization hit call (TYK2): inactive: 0
- kinase-Nluc reporter destabilization hit call (ULK3): inactive: 0
- kinase-Nluc reporter destabilization hit call (YES1): inactive: 0
- kinase-Nluc reporter destabilization hit call (ZAK): inactive: 0
- kinase-Nluc reporter destabilization hit call (ZAP70): inactive: 0
- number of time points (ABL1): 0
- number of time points (AKT1): 0
- number of time points (ALK): 0
- number of time points (ARAF): 0
- number of time points (AURKA): 0
- number of time points (AURKB): 0
- number of time points (AURKC): 0
- number of time points (BLK): 0
- number of time points (BMX): 0
- number of time points (BRAF): 0
- number of time points (BRAF_V600E): 0
- number of time points (BTK): 0

SMILES: COc1nn(C)cc1Nc1nccc(-c2c[nH]c3c(NC(=O)[C@@H](C)N4CCN(C)CC4)cccc23)n1 (10 µM)
- kinase-Nluc reporter destabilization hit call (STK38): inactive: 0
- kinase-Nluc reporter destabilization hit call (SYK): inactive: 0
- kinase-Nluc reporter destabilization hit call (TEC): inactive: 0
- kinase-Nluc reporter destabilization hit call (TYK2): inactive: 0
- kinase-Nluc reporter destabilization hit call (ULK3): inactive: 0
- kinase-Nluc reporter destabilization hit call (YES1): inactive: 0
- kinase-Nluc reporter destabilization hit call (ZAK): inactive: 0
- kinase-Nluc reporter destabilization hit call (ZAP70): inactive: 0
- number of time points (ABL1): 0
- number of time points (AKT1): 0
- number of time points (ALK): 0
- number of time points (ARAF): 0
- number of time points (AURKA): 0
- number of time points (AURKB): 0
- number of time points (AURKC): 0
- number of time points (BLK): 0
- number of time points (BMX): 0
- number of time points (BRAF): 0
- number of time points (BRAF_V600E): 0
- number of time points (BTK): 0
